We go through 3 molecules from the supplement of paper PMC10727501.

What all share (details): 10 µM; pre-incubation: 30-90 min
In assay [1] the test system is Danio rerio larvae (5 dpf, TLF). The experiment in a line: OMR-Perf (SSMD vs DMSO vehicle); higher = higher than vehicle (e.g. higher dark-flash O-bend response probability, or better optomotor performance).
Assay [2] shares this test system. Kind of assay: Prob-Test (SSMD vs DMSO vehicle); higher = higher than vehicle (e.g. higher dark-flash O-bend response probability, or better optomotor performance).
Assay [3] shares this test system. Kind of assay: Prob-Naive (SSMD vs DMSO vehicle); higher = higher than vehicle (e.g. higher dark-flash O-bend response probability, or better optomotor performance).
The test system is the same in assay [4]. Kind of assay: Prob-Train (SSMD vs DMSO vehicle); higher = higher than vehicle (e.g. higher dark-flash O-bend response probability, or better optomotor performance).

This is one part of the list. Repeats in this data set agree poorly, so a single value says little.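 Free-swimming zebrafish larvae were scored for O-bend response probability to dark flashes (naive: first five; training: remaining flashes of four 60-flash blocks; test: later 60-flash block) and for turning toward alternating leftward/rightward LED motion (OMR). Six treated larvae were compared with sixty 0.1% DMSO controls; |SSMD|≥2 defined a hit.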

For the molecule `Cn1cnc2c(F)c(Nc3ccc(Br)cc3F)c(C(=O)NOCCO)cc21`, the OMR-Perf in assay [1] is -0.22. Besides, in assay [2], the Prob-Test is -0.198. Besides, the Prob-Naive in assay [3] was found to be 0.0457. The molecule also yielded a Prob-Train in assay [4] of -0.154.
On the same counts, the results for `C[C@H](O[C@H]1OCCN(Cc2n[nH]c(=O)[nH]2)[C@H]1c1ccc(F)cc1)c1cc(C(F)(F)F)cc(C(F)(F)F)c1` [Aprepitant] are 0.512, -0.175, 0.214 and -0.122.
Molecule `CS(=O)(=O)c1ccc(-c2cnc(N)c(C(=O)Nc3ccccc3)n2)cc1` registered an OMR-Perf in assay [1] of -0.0697. This molecule also returned a Prob-Test in assay [2] of -0.909. In assay [3], this molecule came in with a Prob-Naive of -0.298. The molecule further showed a Prob-Train in assay [4] of -0.765.
